Where a name gives a salt, the structure may show the parent alone. The list shows a part of the results. This data set is noisy: repeats of one test often differ as much as different tests do.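 ReNCell VM, a human fetal ventral-midbrain neural progenitor line, was differentiated without mitogens. Blinded raters scored images stained for doublecortin (early neurons) or tyrosine hydroxylase (dopaminergic neurons) against untreated wells (0 = no change). Scores were averaged across repeats and both raters, and compounds averaging 2 or more were selected as hits for retesting.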
These molecules were tested on ReNCell VM (assay: dopaminergic neuron differentiation score (TH+ cell fraction vs untreated, manual image score) (score (0 to 3)); higher = more TH+ dopaminergic neuron differentiation). Settings: library: Natural; 2 uM; 4 weeks; BDNF 10 ng/ml + GDNF 10 ng/ml.

Dopaminergic neuron differentiation score, inactive:
COc1c2c(nc3occc13)C(CC=C(C)C)(OC)C(=O)C=C2 (stereo unspecified) [perfamine] 0
CC(C)=CCCC1=CCC(C(=O)O)C(C(=O)O)C1 (stereo unspecified) 0
COc1c2c(nc3ccccc13)OC(C(C)(O)CO)C2 (stereo unspecified) [dubinidine] 0

Same assay, conditions: library: Prestwick; 2 uM; 4 weeks; BDNF 10 ng/ml + GDNF 10 ng/ml

Dopaminergic neuron differentiation score, inactive:
CCN1CCN(C(=O)N[C@@H](C(=O)N[C@@H]2C(=O)N3[C@@H]2SC(C)(C)[C@@H]3C(=O)O)c2ccccc2)C(=O)C1=O [Piperacillin sodium salt] 0
NC(=O)c1ccc[n+]([C@@H]2O[C@H](COP(=O)([O-])OP(=O)(O)OC[C@H]3O[C@@H](n4cnc5c(N)ncnc54)[C@H](O)[C@@H]3O)[C@@H](O)[C@H]2O)c1 [Nadide] 0
C[n+]1ccccc1/C=N/O [Pralidoxime chloride] 0
CCCCCN(C)CCC(O)(P(=O)(O)O)P(=O)(O)O [Ibandronate sodium] 0
CN[C@@H]1[C@H](O[C@H]2[C@H](O[C@H]3[C@H](O)[C@@H](O)[C@H](NC(=N)N)[C@@H](O)[C@@H]3NC(=N)N)O[C@@H](C)[C@]2(O)CO)O[C@@H](CO)[C@H](O)[C@H]1O [Dihydrostreptomycin sulfate] 0

Same assay, conditions: library: Spectrum; 2 uM; 4 weeks; BDNF 10 ng/ml + GDNF 10 ng/ml

Dopaminergic neuron differentiation score, inactive:
CCOC(=O)Nc1nc2ccccc2[nH]1 0
Nc1ccc(/N=N/c2ccccc2)c(N)n1 0
CC(=O)OC1CCC23CC1(C)CCC2C(C)(C)CC3OC(C)=O (stereo unspecified) 0
CCCOc1ccccc1-c1nc2[nH]nnc2c(=O)[nH]1 0
CCN(CC)CCOC(=O)C1(C2CCCCC2)CCCCC1 0
COc1ccc2oc(-c3ccccc3)c(OC)c(=O)c2c1 0
CCCCCC(C)N (stereo unspecified) 0
O=C(O)CCCCCCCC(O)C(O)CCCCCCO (stereo unspecified) 0
COc1ccc2c(c1)OC[C@@H](Cc1ccc(OC)c(OC)c1)[C@@H]2O 1
CO[C@H]1/C=C/O[C@@]2(C)Oc3c(C)c(O)c4c(O)c(c(/C=N/N5CCN(C)CC5)c(O)c4c3C2=O)NC(=O)/C(C)=C\C=C\[C@H](C)[C@H](O)[C@@H](C)[C@@H](O)[C@@H](C)[C@H](OC(C)=O)[C@@H]1C 0
CS(=O)(=O)c1ccc([C@@H](O)[C@@H](CF)NC(=O)C(Cl)Cl)cc1 0
COc1ccc(C(=O)/C=C/c2ccccc2)cc1 0
N[C@@H](CC(=O)O)C(=O)O 0
CCN(CC)CCOC(=O)c1ccc(N)cc1 0
O=C(O)COCCN1CCN([C@H](c2ccccc2)c2ccc(Cl)cc2)CC1 0
O=C(Nc1ccc(C(=O)O)c(O)c1)c1ccccc1 0
Cc1c(NC(=O)c2cccnc2)c(=O)n(-c2ccccc2)n1C 0
Nc1ccccc1S(N)(=O)=O 0

Two records drawn at random from the list so far:
Dopaminergic neuron differentiation score, inactive:
Nc1ccccc1S(N)(=O)=O 0
Cc1c(NC(=O)c2cccnc2)c(=O)n(-c2ccccc2)n1C 0
